The record followed here is patent publication US20220015402A1, “Mint Flavor Compositions” (The Procter & Gamble Company, priority 2020, published 2022).

Data set [1] in a line: Expert sensory testing of racemic menthol vs (−)-menthol in toothpaste (CREST Cavity) with standard spearmint flavor. Type of data set: in vivo. As to the method:
In separate, unpublished internal experiments, perceptual experiences of racemic menthol are quantified via expert sensory testing. The use of a standard spearmint flavor (minimizing extra menthol contribution) compared racemic menthol to (−)-menthol in a toothpaste formulation (CREST Cavity). There are several sensory observations taken from these experiments. […] These aromatic notes appear during brushing and disappear after 5-10 minutes post expectoration and are more pronounced as concentrations increase.

Data set [2] can be described thus: Odor/taste character description by expert flavorists (internal unpublished research). The settings on record: expert flavorist's description. The text has this:
An aspect of the invention provides for a mint flavor composition comprising: a mint flavor component that is racemic menthol and an additional mint flavor component, preferably a combination of racemic menthol and (−)-menthol, more preferably a combination of racemic menthol and (−)-menthol while minimizing the amount of neomenthol, isomenthol, and neoisomenthol. The combination provides the benefits of a cooling sensation, minimizing negatives from less desirable stereoisomers, while being cost effective. Menthol has three chiral centers, and thus has eight stereoisomers, specifically (+)-menthol, (+)-isomenthol, (+)-neomenthol, (+)-neosiomenthol, (−)-menthol, (−)-isomenthol, (−)-neomenthol, and (−)-neoisomenthol. Natural menthol primarily exists as the (1R,2S,5R)-stereoisomer form, also known as (−)-menthol, accounting for perhaps 35-50% of the aroma chemicals present in natural peppermint oil. […]
An aspect of the invention provides for a mint flavor composition comprising: a mint flavor component that is alpha-pinene and an additional mint flavor component. […] Preferably the alpha-pinene has a peak area percent from 1.90-5, preferably 2.00-4, more preferably 2.20-3.5, as determined by Lei-Hoke Method I. Preferably a peak area ratio of (−)-alpha-pinene:(+)-alpha-pinene is from 3.0-6, preferably 3.1-5, more preferably 3.2-4.7, alternatively 3.5-4.5, as determined by Lei-Hoke Method IV. […]

With `CC1CCC(C(C)C)C(O)C1` (racemic) [Racemic Menthol, racemic menthol], the aromatic character result in data set [1] (at higher concentration (greater than 5,000 part per million), during brushing) was “pencil lead, burnt rubber, shoe rubber/leather and motor oil”. Besides, the “time after which the aromatic notes disappear post expectoration” value in data set [1] (higher concentration (greater than 5,000 part per million)) lay in the range of 5 to 10 min. Also, in data set [1] (toothpaste), the “differences vs (−)-menthol detected in the oral cavity for all sensory attributes measured” value is “no meaningful differences”; the “differences vs (−)-menthol in peppery burn, cooling vapors, thermal diffusion and cold” value is “no meaningful differences”. With `CC1CCC(C(C)C)C(O)C1` (single isomer, unassigned; (-)) [(−)-Menthol, (−)-menthol], the “perception compared with racemic menthol” value in data set [1] (at equivalent concentration, toothpaste) was “colder, more minty, less bitter, less drying and delivers a high overall clean mouth sensation”.

In the case of `CC1=CC[C@@H]2C[C@H]1C2(C)C` [(+)-alpha-pinene], the odor/aroma character result in data set [2] is listed as “reminiscent of a green apple”. As to `CC1=CC[C@H]2C[C@@H]1C2(C)C` [(−)-alpha-pinene], in data set [2], the odor/aroma character result was “animalic and sweaty”.
